This is one part of the list. Repeats are few or missing, and single values can be far off.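 The apoptosis fraction was the count of cleaved-PARP antibody-stained nuclei relative to all DNA-stained nuclei, imaged in 1,536-well plates. Screening doses were set so most cells survived, and baseline and induced cleaved-PARP levels vary greatly across cell lines.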
These compounds were tested on CBRC016 (line from a melanoma biopsy) (assay: cleaved PARP positive nuclei fraction relative to DMSO control; melanoma cells; higher = more apoptosis). Conditions: library dose: low library concentration; 72 h.

With Cc1cn(-c2cc(NC(=O)c3ccc(C)c(Nc4nccc(-c5cccnc5)n4)c3)cc(C(F)(F)F)c2)cn1 [nilotinib] + C[As](C)SC[C@H](NC(=O)CC[C@H](N)C(=O)O)C(=O)NCC(=O)O [Darinaparsin] (first compound 0.2 µM, partner dose 0.4 µM) as the compound, how does the “cleaved PARP positive nuclei fraction” value read?
Its value is 153%.

How did the “cleaved PARP positive nuclei fraction” value turn out when Cc1ccc(Nc2nccc(N(C)c3ccc4c(C)n(C)nc4c3)n2)cc1S(N)(=O)=O [Pazopanib] + Cn1cc(C2=C(c3cn(C4CCN(Cc5ccccn5)CC4)c4ccccc34)C(=O)NC2=O)c2ccccc21 [Enzastaurin] (first compound 0.4 µM, partner dose 0.8 µM) was run?
The value was 214%.

With C[C@]12O[C@H](C[C@]1(O)CO)n1c3ccccc3c3c4c(c5c6ccccc6n2c5c31)CNC4=O [Lestaurtinib] + OCc1c[nH]c2ccccc12 [Indole-3-carbinol] (first compound 0.004 µM, partner dose 0.8 µM) as the compound, how does the “cleaved PARP positive nuclei fraction” value read?
Its value is 128%.

Cn1cc(C2=C(c3cn(C4CCN(Cc5ccccn5)CC4)c4ccccc34)C(=O)NC2=O)c2ccccc21 [Enzastaurin] + C[C@]1(O)C[C@@H](c2nc(-c3ccc4ccc(-c5ccccc5)nc4c3)c3c(N)nccn32)C1 [OSI906] (first compound 0.8 µM, partner dose 0.4 µM) was tested. Which “cleaved PARP positive nuclei fraction” value did it give?
Its value is 107%.

With O=C(/C=C/c1cccnc1)NCCCCC1CCN(C(=O)c2ccccc2)CC1 + N.N.[Cl][Pt][Cl] [cisplatin] (first compound 0.01 µM, partner dose 1.6 µM) as the compound, how does the “cleaved PARP positive nuclei fraction” value read?
Its value is 1690%.

O=C(Nc1cc(C(F)(F)F)cc(C(F)(F)F)c1)c1cc(Cl)ccc1O + Cn1cc(C2=C(c3cn(C4CCN(Cc5ccccn5)CC4)c4ccccc34)C(=O)NC2=O)c2ccccc21 [Enzastaurin] (first compound 0.016 µM, partner dose 0.8 µM) was tested. Which “cleaved PARP positive nuclei fraction” value did it give?
The value was 148%.

For C#Cc1cccc(Nc2ncnc3cc(OCCOC)c(OCCOC)cc23)c1 [erlotinib] + C[As](C)SC[C@H](NC(=O)CC[C@H](N)C(=O)O)C(=O)NCC(=O)O [Darinaparsin] (first compound 0.8 µM, partner dose 0.4 µM), which “cleaved PARP positive nuclei fraction” value is on record?
The value was 182%.

For Cn1cnc2c(F)c(Nc3ccc(Br)cc3Cl)c(C(=O)NOCCO)cc21 [selumetinib] + Cn1cc(C2=C(c3cn(C4CCN(Cc5ccccn5)CC4)c4ccccc34)C(=O)NC2=O)c2ccccc21 [Enzastaurin] (first compound 0.015 µM, partner dose 0.8 µM), which “cleaved PARP positive nuclei fraction” value is on record?
The value was 157%.

For N.N.[Cl][Pt][Cl] [cisplatin] + C[C@@H](Oc1cc(-c2cnn(C3CCNCC3)c2)cnc1N)c1c(Cl)ccc(F)c1Cl [Crizotinib] (first compound 1.6 µM, partner dose 0.2 µM), which “cleaved PARP positive nuclei fraction” value is on record?
Its value is 256%.

Each compound was assayed on CBRC017 (line from a melanoma biopsy) in the same assay as above. Conditions: library dose: low library concentration; 72 h.

For Cn1cc(C2=C(c3cn(C4CCN(Cc5ccccn5)CC4)c4ccccc34)C(=O)NC2=O)c2ccccc21 [Enzastaurin] + O=C(O)[C@@H]1[O][Sb](=[O])([O][Sb]2(=[O])[O][C@H]([C@H](O)CO)[C@H](O)[C@H](C(=O)O)[O]2)[O][C@H]([C@H](O)CO)[C@@H]1O [stibogluconate] (first compound 0.8 µM, partner dose 2 µM), which “cleaved PARP positive nuclei fraction” value is on record?
Its value is 118%.

How did the “cleaved PARP positive nuclei fraction” value turn out when C[C@]12O[C@H](C[C@]1(O)CO)n1c3ccccc3c3c4c(c5c6ccccc6n2c5c31)CNC4=O [Lestaurtinib] + CNC(=O)c1cc(Oc2ccc(NC(=O)Nc3ccc(Cl)c(C(F)(F)F)c3)cc2)ccn1 [sorafenib] (first compound 0.004 µM, partner dose 0.4 µM) was run?
Its value is 136%.

Which “cleaved PARP positive nuclei fraction” value does the source give for CC1(C)CCC(c2ccc(Cl)cc2)=C(CN2CCN(c3ccc(C(=O)NS(=O)(=O)c4ccc(N[C@H](CCN5CCOCC5)CSc5ccccc5)c(S(=O)(=O)C(F)(F)F)c4)cc3)CC2)C1 + Cn1cc(C2=C(c3cn(C4CCN(Cc5ccccn5)CC4)c4ccccc34)C(=O)NC2=O)c2ccccc21 [Enzastaurin] (first compound 0.4 µM, partner dose 0.8 µM) here?
The value was 307%.

Which “cleaved PARP positive nuclei fraction” value does the source give for Cn1cc(C2=C(c3cn(C4CCN(Cc5ccccn5)CC4)c4ccccc34)C(=O)NC2=O)c2ccccc21 [Enzastaurin] + O=C(O)c1ccc2c(c1)nc(Nc1cccc(Cl)c1)c1ccncc12 [CX4945] (first compound 0.8 µM, partner dose 0.4 µM) here?
Its value is 87.1%.

N.N.[Cl][Pt][Cl] [cisplatin] + CNC(=O)c1cc(Oc2ccc(NC(=O)Nc3ccc(Cl)c(C(F)(F)F)c3)cc2)ccn1 [sorafenib] (first compound 1.6 µM, partner dose 0.4 µM) was tested. Which “cleaved PARP positive nuclei fraction” value did it give?
The value was 117%.

For N.N.[Cl][Pt][Cl] [cisplatin] + CS(=O)(=O)CCNCc1ccc(-c2ccc3ncnc(Nc4ccc(OCc5cccc(F)c5)c(Cl)c4)c3c2)o1 [lapatinib] (first compound 1.6 µM, partner dose 0.8 µM), which “cleaved PARP positive nuclei fraction” value is on record?
The value was 96%.

C[C@]12O[C@H](C[C@]1(O)CO)n1c3ccccc3c3c4c(c5c6ccccc6n2c5c31)CNC4=O [Lestaurtinib] + Cc1cc(Nc2cc(N3CCN(C)CC3)nc(/C=C/c3ccccc3)n2)n[nH]1 [ENMD2076] (first compound 0.004 µM, partner dose 0.04 µM) was tested. Which “cleaved PARP positive nuclei fraction” value did it give?
The value was 120%.

C[As](C)SC[C@H](NC(=O)CC[C@H](N)C(=O)O)C(=O)NCC(=O)O [Darinaparsin] + Cn1nnc2c(C(N)=O)ncn2c1=O [temozolomide] (first compound 0.4 µM, partner dose 2 µM) was tested. Which “cleaved PARP positive nuclei fraction” value did it give?
The value was 98.9%.

Which “cleaved PARP positive nuclei fraction” value does the source give for CCCCCCCCCCCCCCCCCCOP(=O)([O-])OC1CC[N+](C)(C)CC1 [Perifosine] + Cn1cc(C2=C(c3cn(C4CCN(Cc5ccccn5)CC4)c4ccccc34)C(=O)NC2=O)c2ccccc21 [Enzastaurin] (first compound 0.4 µM, partner dose 0.8 µM) here?
The value was 76.3%.

Which “cleaved PARP positive nuclei fraction” value does the source give for C=CCNC1=C2C[C@@H](C)C[C@H](OC)[C@H](O)[C@@H](C)/C=C(\C)[C@H](OC(N)=O)[C@@H](OC)/C=C\C=C(/C)C(=O)NC(=CC1=O)C2=O [Tanespimycin] + C[As](C)SC[C@H](NC(=O)CC[C@H](N)C(=O)O)C(=O)NCC(=O)O [Darinaparsin] (first compound 0.002 µM, partner dose 0.4 µM) here?
Its value is 95.1%.

With Cn1sc(=O)n(Cc2ccccc2)c1=O + C[As](C)SC[C@H](NC(=O)CC[C@H](N)C(=O)O)C(=O)NCC(=O)O [Darinaparsin] (first compound 0.4 µM, partner dose 0.4 µM) as the compound, how does the “cleaved PARP positive nuclei fraction” value read?
The value was 90.4%.

CC1(C)CCC(c2ccc(Cl)cc2)=C(CN2CCN(c3ccc(C(=O)NS(=O)(=O)c4ccc(N[C@H](CCN5CCOCC5)CSc5ccccc5)c(S(=O)(=O)C(F)(F)F)c4)cc3)CC2)C1 + C[As](C)SC[C@H](NC(=O)CC[C@H](N)C(=O)O)C(=O)NCC(=O)O [Darinaparsin] (first compound 0.4 µM, partner dose 0.4 µM) was tested. Which “cleaved PARP positive nuclei fraction” value did it give?
The value was 249%.

Which “cleaved PARP positive nuclei fraction” value does the source give for Cc1cc(Nc2cc(N3CCN(C)CC3)nc(Sc3ccc(NC(=O)C4CC4)cc3)n2)n[nH]1 [Tozasertib] + C[As](C)SC[C@H](NC(=O)CC[C@H](N)C(=O)O)C(=O)NCC(=O)O [Darinaparsin] (first compound 0.006 µM, partner dose 0.4 µM) here?
The value was 169%.

Which “cleaved PARP positive nuclei fraction” value does the source give for CS(=O)(=O)c1ccc(C(=O)Nc2ccc(Cl)c(-c3ccccn3)c2)c(Cl)c1 [vismodegib] + N.N.[Cl][Pt][Cl] [cisplatin] (first compound 1 µM, partner dose 1.6 µM) here?
The value was 176%.

Cc1cc(Nc2cc(N3CCN(C)CC3)nc(/C=C/c3ccccc3)n2)n[nH]1 + C[As](C)SC[C@H](NC(=O)CC[C@H](N)C(=O)O)C(=O)NCC(=O)O [Darinaparsin] (first compound 0.04 µM, partner dose 0.4 µM) was tested. Which “cleaved PARP positive nuclei fraction” value did it give?
The value was 90.4%.

Which “cleaved PARP positive nuclei fraction” value does the source give for O=C(Nc1cc(C(F)(F)F)cc(C(F)(F)F)c1)c1cc(Cl)ccc1O + C[As](C)SC[C@H](NC(=O)CC[C@H](N)C(=O)O)C(=O)NCC(=O)O [Darinaparsin] (first compound 0.016 µM, partner dose 0.4 µM) here?
Its value is 98.9%.

Which “cleaved PARP positive nuclei fraction” value does the source give for Cc1cn(-c2cc(NC(=O)c3ccc(C)c(Nc4nccc(-c5cccnc5)n4)c3)cc(C(F)(F)F)c2)cn1 [nilotinib] + C[C@]12O[C@H](C[C@]1(O)CO)n1c3ccccc3c3c4c(c5c6ccccc6n2c5c31)CNC4=O [Lestaurtinib] (first compound 0.2 µM, partner dose 0.004 µM) here?
The value was 104%.

With C[As](C)SC[C@H](NC(=O)CC[C@H](N)C(=O)O)C(=O)NCC(=O)O [Darinaparsin] + Cn1c(Nc2ccc(C(F)(F)F)cc2)nc2cc(Oc3ccnc(-c4ncc(C(F)(F)F)[nH]4)c3)ccc21 [CHIR265] (first compound 0.4 µM, partner dose 0.08 µM) as the compound, how does the “cleaved PARP positive nuclei fraction” value read?
Its value is 254%.

With Cn1cc(C2=C(c3cn(C4CCN(Cc5ccccn5)CC4)c4ccccc34)C(=O)NC2=O)c2ccccc21 [Enzastaurin] + CN(c1ncccc1CNc1nc(Nc2ccc3c(c2)CC(=O)N3)ncc1C(F)(F)F)S(C)(=O)=O [PF562271] (first compound 0.8 µM, partner dose 0.08 µM) as the compound, how does the “cleaved PARP positive nuclei fraction” value read?
The value was 145%.

With C[C@]12O[C@H](C[C@]1(O)CO)n1c3ccccc3c3c4c(c5c6ccccc6n2c5c31)CNC4=O [Lestaurtinib] + O=C(O)c1ccc2c(c1)nc(Nc1cccc(Cl)c1)c1ccncc12 [CX4945] (first compound 0.004 µM, partner dose 0.4 µM) as the compound, how does the “cleaved PARP positive nuclei fraction” value read?
Its value is 116%.
